# Article PMC7936876
# By UniProt entry, the sequences of proteins in these tests, tags left out. Where a name states a change or a piece, a line headed by the entry shows the natural chain unless it says otherwise.
# UniProt Q9VVR1: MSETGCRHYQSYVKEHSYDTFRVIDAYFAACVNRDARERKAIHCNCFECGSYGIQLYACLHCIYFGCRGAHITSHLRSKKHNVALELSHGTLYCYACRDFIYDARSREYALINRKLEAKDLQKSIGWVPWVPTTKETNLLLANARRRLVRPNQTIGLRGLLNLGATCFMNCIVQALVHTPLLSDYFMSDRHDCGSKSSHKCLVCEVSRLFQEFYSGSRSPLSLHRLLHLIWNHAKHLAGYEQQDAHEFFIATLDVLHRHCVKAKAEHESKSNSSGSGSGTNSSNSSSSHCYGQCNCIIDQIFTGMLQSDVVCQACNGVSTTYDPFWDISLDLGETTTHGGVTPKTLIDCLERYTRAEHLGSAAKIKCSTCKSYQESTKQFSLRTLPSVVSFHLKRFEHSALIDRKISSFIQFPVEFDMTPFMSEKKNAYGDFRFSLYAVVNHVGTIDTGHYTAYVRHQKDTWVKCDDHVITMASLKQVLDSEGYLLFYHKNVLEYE
# These are yes or no findings as the source states them, for the method shown. Binding seen in cells or lysates may run through a third protein. Here binding means that the protein was enriched with, or labelled near, the bait; the list need not be complete. No binding means not detected with the bait.
# B1: Trithorax-like protein (Trl)/GAF (protein, UniProt Q08605 1-582)
# chain: MSLPMNSLYSLTWGDYGTSLVSAIQLLRCHGDLVDCTLAAGGRSFPAHKIVLCAASPFLLDLLKNTPCKHPVVMLAGVNANDLEALLEFVYRGEVSVDHAQLPSLLQAAQCLNIQGLAPQTVTKDDYTTHSIQLQHMIPQHHDQDQLIATIATAPQQTVHAQVVEDIHHQGQILQATTQTNAAGQQQTIVTTDAAKHDQAVIQAFLPARKRKPRVKKMSPTAPKISKVEGMDTIMGTPTSSHGSGSVQQVLGENGAEGQLLSSTPIIKSEGQKVETIVTMDPNNMIPVTSANAATGEITPAQGATGSSGGNTSGVLSTPKAKRAKHPPGTEKPRSRSQSEQPATCPICYAVIRQSRNLRRHLELRHFAKPGVKKEKKTTSGKKSSSGSSGSGSGALSSSGSVPQVQTVQSLHTLQGVQVKKDPDAQQQQQQQQQQQQQQQQQAMTVSGATGGQVQQQVQQVQQQVQQQQQQQQQQQQQLQHHQIIDSSGNITTATTSAQAAAAAQQQAAGQQQQLVAQSDGSESGAPLSIAQVQTLQGHQIIGNLNQVNITDFQQQQPQQQQQQQQQQQQQQQQQQQTQQTL
# B2: Suppressor of Hairy Wing (protein, UniProt P08970 1-941)
# chain: MSASKEGKEKKGKLLGVENISPPKDKRPATRMKLLNDVGAGEDSEASTTTTTSRTPSNKQEKRGSVAGSRIKILNEEILGTPKTEKRGATKSTAPAASTVKILNEKKTPSATVTAVETTKIKTSPSKRKKMEHYVLQAVKSENTKADTTVTVVTEEDDTIDFILADDEEVVPGRIENNNGQEIVVTEDDEDLGEDGDEDGEDSSGKGNSSQTKIKEIVEHVCGKCYKTFRRVQSLKKHLEFCRYDSGYHLRKADMLKNLEKIEKDAVVMEKKDICFCCSESYDTFHLGHINCPDCPKSFKTQTSYERHIFITHSEFSDFPCSICNANLRSEALLALHEEQHKSRGKPYACKICGKDFTRSYHLKRHQKYSSCSSNETDTMSCKVCDRVFYRLDNLRSHLKQHLGTQVVKKPEYMCHTCKNCFYSLSTLNIHIRTHTGEKPFDCDLCDKKFSALVALKKHRRYHTGEKPYSCTVCNQAFAVKEVLNRHMKRHTGERPHKCDECGKSFIQATQLRTHSKTHIRPFPCEQCDEKFKTEKQLERHVKTHSRTKRPVFSCAECKRNFRTPALLKEHMDEGKHSPKQQRSSMRSAVKIMERTDCAICDKNFDSSDTLRRHIRTVHECDPDDIFGVEPHPSKRAKKDIESEEVVPVALNTSAGSLISSQTDGNGVVVREFLVDEGDGAAQTITLENETYTILPLDGAIEGEQLTDEAGVKPEAKKEEAQVSPVVKKEQRKSLAASLAAAIADNLEESCSEDDFSGEILTEEDIKLKENVGKLIDMLVDPPILKKYGWPNAPEETVLCKVIENCGHDLTKGGENYAELDYGSRMREYCKLLFTVVIHNDSIKSLLNNFPIDDVIEYVLGDEDQDEGGLDKDNESHSGDEEAVSVTGETKTNEIREKPEKKEVSAKSEKKEIVGKAVDKDNSEEVVRENKKKPVGEQEKA
# B3: CTCF (protein, UniProt Q9VS55 1-818)
# chain: MPRRTKKDEDPEDLQTFLNNFHKEIEGNSDEKVVNTILEAISAEAIDLDENGAEAGGSKPMEEAEADLDHAEEAEEEEEDDEDKYFIDDEGNCYIKTTPKKQKELQKKLKQAAAKPGKATRSVVSTATNKSINLRPAKSTPKATTSKPPPEPKAISVRPARAAAAKAKQSAMPPPPALVVKVPAPRGRPRKNPVIPKPEPMDLERELEELVDEPDISSMVTELSDYTVDEAAVEAATATLTPNEAEVYEFEDNATTEDENADKKDVDFVLSNKEVKLKTASSTSQNSNASGHKYSCPHCPYTASKKFLITRHSRSHDVEPSFKCSICERSFRSNVGLQNHINTHMGNKPHKCKLCESAFTTSGELVRHTRYKHTKEKPHKCTECTYASVELTKLRRHMTCHTGERPYQCPHCTYASQDMFKLKRHMVIHTGEKKYQCDICKSRFTQSNSLKAHKLIHSVVDKPVFQCNYCPTTCGRKADLRVHIKHMHTSDVPMTCRRCGQQLPDRYQYKLHVKSHEGEKCYSCKLCSYASVTQRHLASHMLIHLDEKPFHCDQCPQAFRQRQLLRRHMNLVHNEEYQPPEPREKLHKCPSCPREFTHKGNLMRHMETHDDSANAREKRRRLKLGRNVRLQKDGTVITLIKDQYVDMDRDQEENEEDDNPESYDLAEIEPENSEAEDADDDVETIVSDPIRQRIKPAPIIINKQARLAASEKQPMIINQRLRSQRGTKTFHIKEEPDNSDFTVEWQGDDGEVMVVELVNGDEEVLVKHEPSANSKISAKNCFGFEDDDDYEEYGDGENEVDGASQEFLQLMDMIEQDS
# B4: Nup98 (endogenous) (protein, UniProt Q9VCH5 1-1028)
# chain: MFGGAKPSFGATPAATSFGGFSGTTTTTPFGQSAFGKPAAPAFGNTSTFAAQPAQQSLFGAAATPAQPAGGLFGANTSTGFGSTATAQPTAFGAFSQPQQTSNIFGSTQTAASTSLFGQSTLPAFGAAKPTMTAFGQTAAAQPTGSLFGQPAAATSTTGFGGFGTSAPTTTNVFGSGTASAFAQPQATAVGASGVNTGTAVAKYQPTIGTDTLMKSGQANSVNTKQHCITAMKEFEGKSLEELRLEDYMCGRKGPQAGNAPGAFGFGAQVTQPAQPASGGLFGSTAQPSTGLFGQTVTENKSMFGTTAFGQQPATNNAFGAATQQNNFLQKPFGATTTTPFAAPAADASNPFGAKPAFGQGGSLFGQAPATSAAPAFGQTNTGFGGFGTTAGATQQSTLFGATPAADPNKSAFGLGTAASAATTGFGFGAPATSTAGGGLFGNKPATSFAAPTFGATSTASTPFSNFGLNTSTAATGGGLFNSGLNKPATSGFGGFGATSAAPLNFNAGNTGGSLFGNTAKPGGGLFGGGTTTLGGTGAAPTGGLFGGGTTSFGGVGGSLGGGGFGMGTNNSLTGGIMGAQPTLGIMTPSHQPIHQQILARVTSPYGDSPIFKDLKLSSEADATRATNPAAQQAVLDLTSNQYKISTSNNPAPMKVKALGSTLNRKSLFDGLEEFDASVEGFNLKPSAKRLVIKPKVKSVEGGNPSSSIGSAPNTPQSRPKGATPNKERESFSGAIPSEPLPPAGNSPGATNGRESQDNGRRESWLHPNNLEKVRQHNIQTGMDQGSPHNSTLNELVPRKPLDTYRPSSTVRLSVSTIPENPFEDQSSTIARRETFTSQQANESVLSNRSNEAEDSAANQSRLAIEAAAAEAADDESHPTGIVLRRVGYYTIPSLDDLRSYLAEDGSCVVPNFTVGREGYGNVFFGKEMDVAGLNLDEIVHFRNKEIIIYPDDENKPPIGQGLNRDAQVTLDQVWPLDKTKHEAIKDPQRLLEMDWEGKLRRVCDKNDTRFIEYRPETGSWVFRVKHF
# Target: Non-stop-2xFLAG-2xHA (D. melanogaster) (UniProt Q9VVR1)
# Assay: affinity purification with mass spectrometry; Non-stop-2xFLAG-2xHA from stably transfected S2 cells, sequential capture by FLAG then HA, complexes resolved by gel filtration, three fractions of each peak of deubiquitinase activity combined and analysed by MudPIT (Group 1 about 1.8 MDa, Group 2 about 670 kDa, third peak about 75 kDa)
row,binding,Binder
1,no binding,B1
2,no binding,B2
3,no binding,B3
4,binds,B4
